# Library screen at single concentrations

By UniProt entry, the sequences of proteins in these tests, tags left out. Residues count along the entry.
UniProt A4I591, 1-473: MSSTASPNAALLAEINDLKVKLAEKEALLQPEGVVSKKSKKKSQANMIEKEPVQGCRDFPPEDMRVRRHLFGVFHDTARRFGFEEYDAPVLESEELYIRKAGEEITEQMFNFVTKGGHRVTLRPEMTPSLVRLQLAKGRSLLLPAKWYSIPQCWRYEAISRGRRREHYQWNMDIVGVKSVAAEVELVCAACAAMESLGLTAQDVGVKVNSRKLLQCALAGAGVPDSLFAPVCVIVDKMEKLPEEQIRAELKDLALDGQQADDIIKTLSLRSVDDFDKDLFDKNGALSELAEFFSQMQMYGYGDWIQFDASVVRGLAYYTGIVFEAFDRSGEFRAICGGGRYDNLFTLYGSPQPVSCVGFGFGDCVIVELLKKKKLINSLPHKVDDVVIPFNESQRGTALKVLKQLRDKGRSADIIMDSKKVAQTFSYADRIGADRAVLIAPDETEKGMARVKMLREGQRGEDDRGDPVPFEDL
UniProt P9WFT3, whole entry: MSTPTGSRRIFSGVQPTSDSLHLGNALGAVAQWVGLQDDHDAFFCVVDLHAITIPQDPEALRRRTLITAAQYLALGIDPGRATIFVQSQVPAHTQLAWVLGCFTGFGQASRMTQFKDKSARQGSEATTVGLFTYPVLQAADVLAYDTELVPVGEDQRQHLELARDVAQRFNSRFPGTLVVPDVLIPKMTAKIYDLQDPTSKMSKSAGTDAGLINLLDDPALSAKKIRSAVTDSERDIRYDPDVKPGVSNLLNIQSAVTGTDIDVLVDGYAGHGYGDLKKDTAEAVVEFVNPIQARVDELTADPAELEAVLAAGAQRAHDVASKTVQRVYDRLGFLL

LiHisRS: 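Histidine-tRNA ligase, Leishmania infantum (UniProt A4I591). Enzyme assay of histidyl-tRNA synthetase; the read-out is not stated. Tested at 30 µM. The record gives no direction; compounds that gave an IC50 in retests scored well above the rest, so higher reads as stronger inhibition. The assay is labelled LdHisRS but filed under L. infantum. Size under these conditions: about 69,000 compounds, about 410 of them at 50% or above in at least one test.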
T. brucei: 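Whole-parasite assay of Trypanosoma brucei over 72 hours; the read-out is not stated. Compounds at 30 µM. Higher reads as stronger inhibition (inferred: compounds with an IC50 in retests scored well above the rest). Values scatter widely below zero; nearly all retest evidence comes from the higher of the two concentrations used. Of about 64,000 compounds tested this way, about 940 (1.5%) reached 50% or more in at least one test.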
MtTrpRS: 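Enzyme assay of tryptophanyl-tRNA synthetase; the read-out is not stated. Target: Tryptophan-tRNA ligase, Mycobacterium tuberculosis (UniProt P9WFT3). Tested at 10 µM. Direction is not recorded; retested compounds ran higher, which suggests that high means inhibition. Of about 65,000 compounds tested this way, about 64 (0.098%) reached 50% or more in at least one test.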

Each number is a percent effect as filed.
The record does not define 0% and 100%; most values in the screen are far below 50% and negative numbers occur (in some assays of this library far below -100).
Compounds were drawn at random from those tested, without regard to their results.
A dash means the value is not listed here; it may have been measured.

{"structure": "CN(Cc1ccccc1)c1ncccc1CNC1CN2CCC1CC2", "stereo": "stereo not given", "LiHisRS": 38.71, "T. brucei": 41.61, "MtTrpRS": -0.2129}
{"structure": "N#Cc1ccccc1CN1CCCC(c2nccn2CC2CC2)C1", "stereo": "stereo not given", "LiHisRS": 8.73, "T. brucei": -37.6, "MtTrpRS": -2.763}
{"structure": "Cc1nccn1C1CCCN(C(=O)c2cc3ccccc3[nH]2)C1", "stereo": "stereo not given", "LiHisRS": -3.371, "T. brucei": -49.14, "MtTrpRS": -4.013}
{"structure": "O=C(O)C(F)(F)F.[H][C@@]12CCCO[C@]1([H])[C@H](NC(=O)CC1CC1)CN(Cc1csc(C)n1)C2", "T. brucei": 1.924}
{"structure": "CNc1snc(C)c1C(=O)N1CCCC(n2ccnc2)C1", "stereo": "stereo not given", "LiHisRS": 13.79, "T. brucei": 10.39, "MtTrpRS": 3.754}
{"structure": "CC(=O)CC(C)(C)NC(=O)CCN(C)Cc1ccc(Cl)s1", "LiHisRS": 13.16, "T. brucei": 12.25, "MtTrpRS": 1.556}
{"structure": "CC(C)CN1CCc2[nH]cnc2C12CCN(C(=O)c1cncn1C)CC2", "LiHisRS": 17.74, "T. brucei": -6.62, "MtTrpRS": 1.207}
{"structure": "Cc1cccc(C(=O)N2CCn3cnc(COCC4CC4)c3C2)c1", "LiHisRS": 34.51, "T. brucei": -24.1, "MtTrpRS": -3.267}
{"structure": "COc1cccn(CC(=O)N(C)CCSC)c1=O", "LiHisRS": 32, "T. brucei": -45.91, "MtTrpRS": 1.956}
{"structure": "[H][C@@]12CN(C(C)C)C[C@]1([H])OCC(=O)N2Cc1ccccc1", "T. brucei": 10.15}
{"structure": "O=C1CCC2(CCCN(CCn3cc(Cl)cn3)C2)CN1C1CCCC1", "stereo": "stereo not given", "LiHisRS": 8.434, "T. brucei": 2.022, "MtTrpRS": 3.213}
{"structure": "CCC(CC)(CNC(=O)OC(C)(C)C)NC(=O)C1CCCO1", "stereo": "stereo not given", "LiHisRS": 16, "T. brucei": -26.09, "MtTrpRS": -0.4841}
{"structure": "Cc1cnc(N2CCCC3(CCCN3CC(=O)N(C)C)C2)nc1.O=C(O)C(F)(F)F", "stereo": "stereo not given", "T. brucei": -62.2}
{"structure": "CCc1nc(C2CCCN2CCCS(=O)(=O)c2ccccc2)no1", "stereo": "stereo not given", "LiHisRS": 17.02, "T. brucei": -1.394, "MtTrpRS": -1.411}
{"structure": "O=c1[nH]c2cc(S(=O)(=O)N3CCC(c4ccsc4)CC3)ccc2o1", "LiHisRS": 13.91, "T. brucei": 2.022, "MtTrpRS": 1.596}
{"structure": "COc1ccc(F)c(CN2CCC(c3cc(O)nc(C)n3)C2)c1", "stereo": "stereo not given", "LiHisRS": -19.44, "MtTrpRS": 3.261}
{"structure": "CN1CCCC[C@@H]2[C@H]1[C@@H](c1ccccc1)CCN2C(=O)c1ccccc1", "LiHisRS": 33.33, "MtTrpRS": -1.589}
{"structure": "O=C(C[S+]([O-])Cc1cccc(C(F)(F)F)c1)NC1CCCC1", "stereo": "stereo not given", "LiHisRS": 22.22, "T. brucei": -0.5734, "MtTrpRS": 1.358}
{"structure": "CCC[C@@H]1CN(c2cncc(C(=O)N3CCOCC3)n2)C[C@H]1N(C)C", "LiHisRS": 8.85, "T. brucei": -23.84, "MtTrpRS": -1.088}
{"structure": "OC1CCN(C2CCN(c3ccc(Cn4ccnc4)cn3)CC2)CC1", "LiHisRS": 20, "T. brucei": -21.2, "MtTrpRS": 4.996}
{"structure": "CC(C)N(C)C(=O)C1=NOC2(CCN(C(=O)c3ccc(Cl)cc3)C2)C1", "stereo": "stereo not given", "LiHisRS": 11.43, "T. brucei": -44.14, "MtTrpRS": -0.4112}
{"structure": "Cc1nc(CNC(=O)NC(C)c2ccc3c(c2)OCCCO3)cs1", "stereo": "stereo not given", "LiHisRS": 13.27, "T. brucei": -25.43, "MtTrpRS": -0.8541}
{"structure": "CCCn1[nH]cc/c1=N\\C(=O)CN1CCCC1Cn1nc(C)nc1C", "stereo": "stereo not given", "LiHisRS": 15.87, "T. brucei": -6.295, "MtTrpRS": 3.468}
{"structure": "CCN(CC)c1ccc(CNC(=O)c2ccc(=O)[nH]n2)cn1", "LiHisRS": 6.14, "T. brucei": -14.79, "MtTrpRS": 4.046}
{"structure": "Cc1nc(N)nc(C)c1Cc1nc(C2CC2)n[nH]1", "LiHisRS": 16.67, "T. brucei": -10.45, "MtTrpRS": 0.8215}
{"structure": "Cc1cc(C(=O)NCc2c(C)nn(C)c2C)nc(N2CCOCC2)n1", "LiHisRS": 17.86, "T. brucei": -14.27, "MtTrpRS": 3.948}
{"structure": "CN1CCCC2(CCN(C(=O)c3ccncc3)C2)C1", "stereo": "stereo not given", "LiHisRS": 13.76, "T. brucei": -1.395, "MtTrpRS": -1.451}
{"structure": "CNC(=O)Cc1ccc(NC(=O)NCc2nc(C)sc2C)cc1", "LiHisRS": 4.651, "T. brucei": 2.742, "MtTrpRS": 0.9031}
{"structure": "Cl.NC1CCc2nc(-c3ccncc3)nc(Nc3cccc(F)c3)c2C1", "stereo": "stereo not given", "T. brucei": 99.62}

The first 4 entries again:

| structure | LiHisRS | T. brucei | MtTrpRS |
|---|---|---|---|
| `CN(Cc1ccccc1)c1ncccc1CNC1CN2CCC1CC2` (stereo not given) | 38.71 | 41.61 | -0.2129 |
| `N#Cc1ccccc1CN1CCCC(c2nccn2CC2CC2)C1` (stereo not given) | 8.73 | -37.6 | -2.763 |
| `Cc1nccn1C1CCCN(C(=O)c2cc3ccccc3[nH]2)C1` (stereo not given) | -3.371 | -49.14 | -4.013 |
| `O=C(O)C(F)(F)F.[H][C@@]12CCCO[C@]1([H])[C@H](NC(=O)CC1CC1)CN(Cc1csc(C)n1)C2` | - | 1.924 | - |

Measurements from “University of Dundee, Small-Polar-MMV Screening Library” (2021), ChEMBL document CHEMBL3988442.